Reference: PMC4884984, “Identification of approved and investigational drugs that inhibit hypoxia-inducible factor-1 signaling” (Oncotarget, 2016)
The amount applied is not stated for every result.

Experiments:
ME-180 cells = assay: Cancer cell proliferation assay, ME-180; assay type: cell-based, human; details: Table S8; ratio
HCT116 cells = assay: Cancer cell proliferation assay, HCT116; assay type: cell-based, human; details: Table S8; ratio

Row | SMILES | HIF-1α–NanoLuc Activity/ME-180 3-Day Viability (ME-180 cells) | HIF-1α–NanoLuc Activity/HCT116 3-Day Viability (HCT116 cells)
1 | Nc1ncn([C@@H]2O[C@H](CO)[C@@H](O)[C@H]2O)c(=O)n1 [5-Azacitidine] | 0.08 | 0.1
2 | CC[C@@]1(O)C(=O)OCc2c1cc1n(c2=O)Cc2cc3ccccc3nc2-1 [Camptothecin] | 14 | 1.5
3 | C[C@H]1O[C@@H](O[C@H]2CC[C@@]3(C)[C@H](CC[C@@H]4[C@@H]3C[C@@H](O)[C@]3(C)[C@@H](C5=CC(=O)OC5)CC[C@]43O)C2)C[C@H](O)[C@@H]1O[C@H]1C[C@H](O)[C@H](O[C@H]2C[C@H](O)[C@H](O[C@@H]3O[C@H](CO)[C@@H](O)[C@H](O)[C@H]3O)[C@@H](C)O2)[C@@H](C)O1 [Deslanoside] | 12 | 0.2
4 | C[C@H]1O[C@@H](O[C@H]2[C@@H](O)C[C@H](O[C@H]3[C@@H](O)C[C@H](O[C@H]4CC[C@@]5(C)[C@H](CC[C@@H]6[C@@H]5CC[C@]5(C)[C@@H](C7=CC(=O)OC7)CC[C@]65O)C4)O[C@@H]3C)O[C@@H]2C)C[C@H](O)[C@@H]1O [Digitoxin] | 1.2 | 0.05
5 | O=c1cc(N2CCOCC2)oc2c(-c3ccccc3)cccc12 [LY-294002] | 0.9 | 
6 | O=C1c2c(O)ccc(O)c2C(=O)c2c(NCCNCCO)ccc(NCCNCCO)c21 [Mitoxantrone] | 69 | 0.7
7 | COc1c(C)c2c(c(O)c1C/C=C(\C)CCC(=O)OCCN1CCOCC1)C(=O)OC2 [Mycophenolate mofetil] | 0.9 | 
8 | O=C(Nc1ccc([N+](=O)[O-])cc1Cl)c1cc(Cl)ccc1O [Niclosamide] |  | 1.0
9 | C[C@@H]1O[C@@H](O[C@H]2C[C@@H](O)[C@]3(CO)[C@H]4[C@H](O)C[C@]5(C)[C@@H](C6=CC(=O)OC6)CC[C@]5(O)[C@@H]4CC[C@]3(O)C2)[C@H](O)[C@H](O)[C@H]1O [Ouabain] | 1.1 | 0.2
10 | O=C(NOCC1CC1)c1ccc(F)c(F)c1Nc1ccc(I)cc1Cl [PD 184352] |  | 1.0
11 | Oc1cccc(-c2nc(N3CCOCC3)c3oc4ncccc4c3n2)c1 [PI-103] | 2.5 | 
12 | C[C@@H]1O[C@@H](O[C@@H]2C=C3CC[C@@H]4[C@H](CC[C@]5(C)[C@@H](c6ccc(=O)oc6)CC[C@]45O)[C@@]3(C)CC2)[C@H](O)[C@H](O)[C@H]1O [Proscillaridin A] | 0.5 | 0.1
13 | Cn1cnc2c(F)c(Nc3ccc(Br)cc3Cl)c(C(=O)NOCCO)cc21 [Selumetinib] | 5.5 | 0.07
14 | CCN(CC)CCNC(=O)c1c(C)[nH]c(/C=C2\C(=O)Nc3ccc(F)cc32)c1C [Sunitinib] | 0.6 | 
15 | CC[C@@]1(O)C(=O)OCc2c1cc1n(c2=O)Cc2cc3c(CN(C)C)c(O)ccc3nc2-1 [Topotecan] | 21 | 0.5
16 | CC(=O)Nc1cccc(-n2c(=O)n(C3CC3)c(=O)c3c(Nc4ccc(I)cc4F)n(C)c(=O)c(C)c32)c1 [Trametinib] | 50 | 5
17 | CCCS(=O)(=O)Nc1ccc(F)c(C(=O)c2c[nH]c3ncc(-c4ccc(Cl)cc4)cc23)c1F [Vemurafenib] | 0.9 | 0.4
18 | COC[C@H]1OC(=O)c2coc3c2[C@@]1(C)C1=C(C3=O)[C@@H]2CCC(=O)[C@@]2(C)C[C@H]1OC(C)=O [Wortmannin] | 0.1 | 
